Measured values reported in PubChem BioAssay AID743255 (National Center for Advancing Translational Sciences (NCATS), 2014).
The campaign covered roughly 390,000 compounds. About 910 (0.23%) were called active. Inconclusive results, whose numbers are uncertain, are shown with a selection of clear calls. The call rests on the fitted dose curve; in most records, active means well fitted inhibition curve with a large enough effect; inconclusive means small, poorly fitted or top-dose-only effect; inactive means no such curve, though single readings can be large or run the other way. Potencies of inconclusive entries are doubtful fits and often do not repeat.

The chains behind the UniProt entries cited, without tags or fusion partners. Where a name states a change or a piece, a line headed by the entry shows the natural chain unless it says otherwise.
UniProt O94782: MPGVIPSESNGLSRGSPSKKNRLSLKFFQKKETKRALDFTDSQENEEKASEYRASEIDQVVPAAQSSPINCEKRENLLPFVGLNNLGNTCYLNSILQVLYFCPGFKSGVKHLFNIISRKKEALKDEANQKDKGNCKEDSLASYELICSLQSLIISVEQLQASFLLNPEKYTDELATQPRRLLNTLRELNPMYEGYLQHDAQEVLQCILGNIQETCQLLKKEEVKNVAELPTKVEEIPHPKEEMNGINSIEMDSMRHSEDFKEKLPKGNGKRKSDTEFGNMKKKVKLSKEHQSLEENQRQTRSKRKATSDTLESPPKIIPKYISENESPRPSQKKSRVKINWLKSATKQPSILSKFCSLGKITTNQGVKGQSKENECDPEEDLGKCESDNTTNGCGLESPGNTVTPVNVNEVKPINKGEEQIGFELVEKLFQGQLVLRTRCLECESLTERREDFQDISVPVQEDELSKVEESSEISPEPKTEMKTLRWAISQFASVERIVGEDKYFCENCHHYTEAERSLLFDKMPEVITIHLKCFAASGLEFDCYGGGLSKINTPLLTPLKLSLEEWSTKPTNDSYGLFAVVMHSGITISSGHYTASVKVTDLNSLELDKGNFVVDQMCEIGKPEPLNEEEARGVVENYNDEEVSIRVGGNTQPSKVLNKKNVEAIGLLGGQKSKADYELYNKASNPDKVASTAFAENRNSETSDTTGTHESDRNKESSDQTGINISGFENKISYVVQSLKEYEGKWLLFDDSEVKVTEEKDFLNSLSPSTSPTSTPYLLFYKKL

Molecular target: Ubiquitin carboxyl-terminal hydrolase 1 (Homo sapiens) (UniProt O94782)
Experiment: Inhibitors of USP1/UAF1: Primary Screen; further: nearly all actives have a fitted effect of over 60% in size
Settings: recombinant USP1/UAF1, Ub-Rhodamine cleavage fluorescence; series mostly up to 57.1 µM
How it was run: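 High-throughput fluorogenic screen: 1nM USP1/UAF1 complex, Ub-Rho substrate 150nM final, 50mM HEPES pH 7.8 with 0.5mM EDTA, 0.1 mg/ml BSA, 1mM TCEP and 0.01% Tween-20.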
Potency means the concentration at half of the fitted maximal effect.

Compound	Potency
COC(=O)CC1(C(=O)OC)Oc2ccc(Br)cc2C(=O)N1c1cccc(Cl)c1Cl (stereo not given)	inconclusive: 28.2 µM [inhibitor, partial curve]
Cc1nc([N+](=O)[O-])cn1CCC#N	inactive
CCC(C)NC(=O)CCCN1C(=O)CCn2nc(-c3cccn3C)cc21 (stereo not given)	inconclusive: 50.1 µM [inhibitor, partial curve, poor fit]
COC(=O)Nc1ccc(S(=O)(=O)NCCCCCC(=O)O)cc1	inconclusive: 8.91 µM [inhibitor, single point]
COCCNC(=O)c1c[nH]c2ccc(S(=O)(=O)Nc3ccccc3F)cc2c1=O	inactive
CC(C)OC(=O)C(C)(C)Oc1ccc(C(=O)c2ccc(Cl)cc2)cc1	inconclusive: 50.1 µM [inhibitor, partial curve, poor fit]
COc1c(O)cc2oc(-c3ccc(O)c(O)c3)cc(=O)c2c1O	inconclusive: 50.1 µM [inhibitor, partial curve, poor fit]
Cc1ccc(C(c2sc3nc(-c4ccco4)nn3c2O)N2CCCC2)cc1 (stereo not given)	inconclusive: 0.355 µM [inhibitor, full curve, poor fit]
Cc1ccc(N(CC(=O)NCCc2ccc(Cl)cc2)S(=O)(=O)c2c(C)noc2C)cc1	inactive
COc1cc(SC)ccc1C(=O)Nc1ccc(S(=O)(=O)Nc2nccc(C)n2)cc1	inconclusive: 39.8 µM [inhibitor, single point]
COc1cccc(-c2sc3ccc(OC)cc3c2-c2ccc(OCCN(C)C)cc2)c1	inconclusive: 35.5 µM [inhibitor, partial curve, poor fit]
CCOC(=O)/C(=N/Nc1ccccc1)N1CCCc2ccccc21	inactive
CC(=O)Nc1nonc1-c1nnc(SCC(=O)Nc2ccc(C)cc2)n1-c1ccccc1	inconclusive: 20 µM [inhibitor, partial curve, poor fit]
CCCCOC(=O)C1=C(C)NC(=O)NC1c1ccc(OC)cc1 (stereo not given)	inactive
COc1ccccc1OCCn1c(NC(=O)c2ccccc2Cl)nc2ccccc21	inactive
CCn1cc(Br)c(-c2nc3ccccc3c(=O)n2N)n1	inconclusive: 4.47 µM [inhibitor, partial curve]
C#CCOCCOCCOCCNc1nc(N2CCN(C(=O)CCCCCCCCCCNC(=O)Cn3cc(CCCCCN)nn3)CC2)nc(N2CCN(C(=O)CCCCCCCCCCNC(=O)[C@H]([C@@H](C)CC)n3cc(CCCCCN)nn3)CC2)n1	inconclusive: 12.6 µM [inhibitor, partial curve]
O=C(NCC1CCCO1)c1cccc2c1C(=O)c1ccc(N3CCC(Cc4ccccc4)CC3)cc1S2(=O)=O (stereo not given)	inconclusive: 31.6 µM [inhibitor, partial curve, poor fit]
COc1ccc(NC(=O)CN2C(=O)CCn3nc(-c4cccn4C)cc32)cc1	inconclusive: 10 µM [inhibitor, partial curve, poor fit]
CCS(=O)(=O)c1ccc(C(=O)Nc2ccccc2OC)c(Cl)c1Cl	inactive

In a second layout: 7 of the compounds above.
Compound | Potency
CCC(C)NC(=O)CCCN1C(=O)CCn2nc(-c3cccn3C)cc21 (stereo not given) | inconclusive: 50.1 µM [inhibitor, partial curve, poor fit]
COCCNC(=O)c1c[nH]c2ccc(S(=O)(=O)Nc3ccccc3F)cc2c1=O | inactive
CC(C)OC(=O)C(C)(C)Oc1ccc(C(=O)c2ccc(Cl)cc2)cc1 | inconclusive: 50.1 µM [inhibitor, partial curve, poor fit]
COc1c(O)cc2oc(-c3ccc(O)c(O)c3)cc(=O)c2c1O | inconclusive: 50.1 µM [inhibitor, partial curve, poor fit]
COc1cccc(-c2sc3ccc(OC)cc3c2-c2ccc(OCCN(C)C)cc2)c1 | inconclusive: 35.5 µM [inhibitor, partial curve, poor fit]
COc1ccccc1OCCn1c(NC(=O)c2ccccc2Cl)nc2ccccc21 | inactive
C#CCOCCOCCOCCNc1nc(N2CCN(C(=O)CCCCCCCCCCNC(=O)Cn3cc(CCCCCN)nn3)CC2)nc(N2CCN(C(=O)CCCCCCCCCCNC(=O)[C@H]([C@@H](C)CC)n3cc(CCCCCN)nn3)CC2)n1 | inconclusive: 12.6 µM [inhibitor, partial curve]

Next structures.

Compound	Potency
O=C1Nc2ccccc2OC1CC(=O)N1CCCC1 (stereo not given)	inconclusive: 2.51 µM [inhibitor, full curve]
Cc1cc(C)cc(NC(=O)NCCc2c(C)nn(C)c2C)c1	inconclusive: 2.24 µM [inhibitor, full curve]
Cc1cccc(Oc2nc(-c3ccccc3)cc(C)c2S(C)(=O)=O)c1C	inconclusive: 39.8 µM [inhibitor, partial curve]
Cc1ccc(Nc2nc3nonc3nc2Nc2cccc(C(F)(F)F)c2)cc1Cl	inconclusive: 1.78 µM [inhibitor, full curve]
CCN(CC)C(=O)Cn1c(=O)cc(C)c2c(C)nn(-c3cccc(Cl)c3C)c21	inconclusive: 5.62 µM [inhibitor, partial curve, poor fit]
O=C(NCc1ccccc1)C1=C[C@H](C2CC2)C[C@H](OCc2ccc(CO)cc2)O1	inconclusive: 50.1 µM [inhibitor, partial curve, poor fit]
Cc1ccc(C(=O)NNC(=O)CSc2nnc3ccccn23)cc1	inconclusive: 3.98 µM [inhibitor, partial curve]
CCCCNc1c(-c2ccc(OC)c(SC(C)CC)c2)nc2cnccn12 (stereo not given)	inconclusive: 39.8 µM [inhibitor, partial curve, poor fit]
O=C1CC(=Nc2ccc([N+](=O)[O-])cc2)NN1c1c(Cl)cc(Cl)cc1Cl	inconclusive: 17.8 µM [inhibitor, partial curve]
CCCCC1=CC2=CC(=O)C(C)(OC(=O)c3cccs3)C(=O)C2=CO1 (stereo not given)	inconclusive: 44.7 µM [inhibitor, partial curve]
c1ccc2c(c1)CCN(C1=Nc3cccc4cccc1c34)C2	inconclusive: 39.8 µM [inhibitor, partial curve, poor fit]
Cc1nnc(N/N=C/c2cc([N+](=O)[O-])c(N3CCC(C)CC3)cc2N2CCC(C)CC2)n1N	inactive
CC(c1ccccc1)N1CC(C(=O)N2CCN(c3ccccc3)CC2)CC1=O (stereo not given)	inconclusive: 31.6 µM [inhibitor, single point]
COc1ccc(NC(=O)Cn2c(=O)n(-c3cc(C)cc(C)c3)c(=O)c3oc4ccccc4c32)cc1OC	inactive
O=C1NC(=Nc2cccc(O)c2)S/C1=C\c1cccc([N+](=O)[O-])c1	inactive
O=C(COC(=O)c1cnccn1)Nc1ncc(Cl)cc1Cl	inconclusive: 44.7 µM [inhibitor, partial curve, poor fit]
Cc1ccc(C)c(N2CCN(C(=O)c3cn(CC(C)C)c(=O)c4c3c3ccccc3n4C)CC2)c1	inconclusive: 0.355 µM [inhibitor, full curve, poor fit]
Cc1ccc(OCC(=O)Nc2ccccc2-c2ccccc2)cc1	inconclusive: 28.2 µM [inhibitor, partial curve]
COc1ccccc1/C=C1\SC(=S)N(NS(=O)(=O)c2ccc(C)cc2)C1=O	inactive
COc1ccc(NS(=O)(=O)c2ccc(N3CCCCS3(=O)=O)cc2)cc1Cl	inactive
